From the supplement of paper PMC10849652
The list shows a part of the results. Residues, ends and D or L forms follow the SMILES beside them. *: point of attachment. Cbz = O=C(OCc1ccccc1)*

The chains behind the UniProt entries cited, without tags or fusion partners. Where a name states a change or a piece, a line headed by the entry shows the natural chain unless it says otherwise.
UniProt Q9NVR5: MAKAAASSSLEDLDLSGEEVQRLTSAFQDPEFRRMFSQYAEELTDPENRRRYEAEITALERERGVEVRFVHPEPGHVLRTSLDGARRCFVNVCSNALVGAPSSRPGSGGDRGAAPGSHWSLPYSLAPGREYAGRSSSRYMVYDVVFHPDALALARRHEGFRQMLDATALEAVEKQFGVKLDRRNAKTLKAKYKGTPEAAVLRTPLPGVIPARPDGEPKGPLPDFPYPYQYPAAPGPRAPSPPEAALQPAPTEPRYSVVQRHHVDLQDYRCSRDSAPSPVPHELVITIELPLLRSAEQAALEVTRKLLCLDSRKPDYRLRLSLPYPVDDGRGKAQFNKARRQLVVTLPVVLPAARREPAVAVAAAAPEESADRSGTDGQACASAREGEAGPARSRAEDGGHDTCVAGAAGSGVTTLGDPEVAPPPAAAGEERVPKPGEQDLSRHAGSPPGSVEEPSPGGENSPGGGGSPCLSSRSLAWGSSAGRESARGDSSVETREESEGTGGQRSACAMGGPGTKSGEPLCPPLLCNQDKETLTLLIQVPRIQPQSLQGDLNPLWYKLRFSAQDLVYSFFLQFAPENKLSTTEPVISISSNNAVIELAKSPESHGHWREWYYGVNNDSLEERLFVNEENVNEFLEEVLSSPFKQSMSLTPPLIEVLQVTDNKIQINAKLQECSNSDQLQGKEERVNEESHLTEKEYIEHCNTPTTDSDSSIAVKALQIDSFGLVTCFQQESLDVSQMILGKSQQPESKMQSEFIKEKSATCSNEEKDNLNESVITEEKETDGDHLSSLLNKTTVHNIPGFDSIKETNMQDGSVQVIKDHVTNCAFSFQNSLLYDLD
UniProt Q9NUI1: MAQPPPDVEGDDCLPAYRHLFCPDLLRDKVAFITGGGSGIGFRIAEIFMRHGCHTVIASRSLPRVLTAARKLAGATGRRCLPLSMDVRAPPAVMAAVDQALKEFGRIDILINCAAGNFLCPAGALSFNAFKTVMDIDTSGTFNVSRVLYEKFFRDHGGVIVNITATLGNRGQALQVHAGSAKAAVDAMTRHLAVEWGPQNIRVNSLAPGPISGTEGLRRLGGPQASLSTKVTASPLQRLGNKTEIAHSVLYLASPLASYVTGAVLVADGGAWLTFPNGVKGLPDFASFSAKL
UniProt Q8N5I4: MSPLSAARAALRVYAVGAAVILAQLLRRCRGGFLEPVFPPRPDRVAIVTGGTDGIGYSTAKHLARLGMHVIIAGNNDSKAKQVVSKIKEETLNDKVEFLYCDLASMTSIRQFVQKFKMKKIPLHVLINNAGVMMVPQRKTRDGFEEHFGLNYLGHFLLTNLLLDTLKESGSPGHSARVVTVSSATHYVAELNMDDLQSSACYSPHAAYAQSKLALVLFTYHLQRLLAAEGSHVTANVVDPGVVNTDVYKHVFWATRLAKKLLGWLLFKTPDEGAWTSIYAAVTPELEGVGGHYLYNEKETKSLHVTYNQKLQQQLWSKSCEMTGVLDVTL
UniProt Q9Y485, whole entry, looked up: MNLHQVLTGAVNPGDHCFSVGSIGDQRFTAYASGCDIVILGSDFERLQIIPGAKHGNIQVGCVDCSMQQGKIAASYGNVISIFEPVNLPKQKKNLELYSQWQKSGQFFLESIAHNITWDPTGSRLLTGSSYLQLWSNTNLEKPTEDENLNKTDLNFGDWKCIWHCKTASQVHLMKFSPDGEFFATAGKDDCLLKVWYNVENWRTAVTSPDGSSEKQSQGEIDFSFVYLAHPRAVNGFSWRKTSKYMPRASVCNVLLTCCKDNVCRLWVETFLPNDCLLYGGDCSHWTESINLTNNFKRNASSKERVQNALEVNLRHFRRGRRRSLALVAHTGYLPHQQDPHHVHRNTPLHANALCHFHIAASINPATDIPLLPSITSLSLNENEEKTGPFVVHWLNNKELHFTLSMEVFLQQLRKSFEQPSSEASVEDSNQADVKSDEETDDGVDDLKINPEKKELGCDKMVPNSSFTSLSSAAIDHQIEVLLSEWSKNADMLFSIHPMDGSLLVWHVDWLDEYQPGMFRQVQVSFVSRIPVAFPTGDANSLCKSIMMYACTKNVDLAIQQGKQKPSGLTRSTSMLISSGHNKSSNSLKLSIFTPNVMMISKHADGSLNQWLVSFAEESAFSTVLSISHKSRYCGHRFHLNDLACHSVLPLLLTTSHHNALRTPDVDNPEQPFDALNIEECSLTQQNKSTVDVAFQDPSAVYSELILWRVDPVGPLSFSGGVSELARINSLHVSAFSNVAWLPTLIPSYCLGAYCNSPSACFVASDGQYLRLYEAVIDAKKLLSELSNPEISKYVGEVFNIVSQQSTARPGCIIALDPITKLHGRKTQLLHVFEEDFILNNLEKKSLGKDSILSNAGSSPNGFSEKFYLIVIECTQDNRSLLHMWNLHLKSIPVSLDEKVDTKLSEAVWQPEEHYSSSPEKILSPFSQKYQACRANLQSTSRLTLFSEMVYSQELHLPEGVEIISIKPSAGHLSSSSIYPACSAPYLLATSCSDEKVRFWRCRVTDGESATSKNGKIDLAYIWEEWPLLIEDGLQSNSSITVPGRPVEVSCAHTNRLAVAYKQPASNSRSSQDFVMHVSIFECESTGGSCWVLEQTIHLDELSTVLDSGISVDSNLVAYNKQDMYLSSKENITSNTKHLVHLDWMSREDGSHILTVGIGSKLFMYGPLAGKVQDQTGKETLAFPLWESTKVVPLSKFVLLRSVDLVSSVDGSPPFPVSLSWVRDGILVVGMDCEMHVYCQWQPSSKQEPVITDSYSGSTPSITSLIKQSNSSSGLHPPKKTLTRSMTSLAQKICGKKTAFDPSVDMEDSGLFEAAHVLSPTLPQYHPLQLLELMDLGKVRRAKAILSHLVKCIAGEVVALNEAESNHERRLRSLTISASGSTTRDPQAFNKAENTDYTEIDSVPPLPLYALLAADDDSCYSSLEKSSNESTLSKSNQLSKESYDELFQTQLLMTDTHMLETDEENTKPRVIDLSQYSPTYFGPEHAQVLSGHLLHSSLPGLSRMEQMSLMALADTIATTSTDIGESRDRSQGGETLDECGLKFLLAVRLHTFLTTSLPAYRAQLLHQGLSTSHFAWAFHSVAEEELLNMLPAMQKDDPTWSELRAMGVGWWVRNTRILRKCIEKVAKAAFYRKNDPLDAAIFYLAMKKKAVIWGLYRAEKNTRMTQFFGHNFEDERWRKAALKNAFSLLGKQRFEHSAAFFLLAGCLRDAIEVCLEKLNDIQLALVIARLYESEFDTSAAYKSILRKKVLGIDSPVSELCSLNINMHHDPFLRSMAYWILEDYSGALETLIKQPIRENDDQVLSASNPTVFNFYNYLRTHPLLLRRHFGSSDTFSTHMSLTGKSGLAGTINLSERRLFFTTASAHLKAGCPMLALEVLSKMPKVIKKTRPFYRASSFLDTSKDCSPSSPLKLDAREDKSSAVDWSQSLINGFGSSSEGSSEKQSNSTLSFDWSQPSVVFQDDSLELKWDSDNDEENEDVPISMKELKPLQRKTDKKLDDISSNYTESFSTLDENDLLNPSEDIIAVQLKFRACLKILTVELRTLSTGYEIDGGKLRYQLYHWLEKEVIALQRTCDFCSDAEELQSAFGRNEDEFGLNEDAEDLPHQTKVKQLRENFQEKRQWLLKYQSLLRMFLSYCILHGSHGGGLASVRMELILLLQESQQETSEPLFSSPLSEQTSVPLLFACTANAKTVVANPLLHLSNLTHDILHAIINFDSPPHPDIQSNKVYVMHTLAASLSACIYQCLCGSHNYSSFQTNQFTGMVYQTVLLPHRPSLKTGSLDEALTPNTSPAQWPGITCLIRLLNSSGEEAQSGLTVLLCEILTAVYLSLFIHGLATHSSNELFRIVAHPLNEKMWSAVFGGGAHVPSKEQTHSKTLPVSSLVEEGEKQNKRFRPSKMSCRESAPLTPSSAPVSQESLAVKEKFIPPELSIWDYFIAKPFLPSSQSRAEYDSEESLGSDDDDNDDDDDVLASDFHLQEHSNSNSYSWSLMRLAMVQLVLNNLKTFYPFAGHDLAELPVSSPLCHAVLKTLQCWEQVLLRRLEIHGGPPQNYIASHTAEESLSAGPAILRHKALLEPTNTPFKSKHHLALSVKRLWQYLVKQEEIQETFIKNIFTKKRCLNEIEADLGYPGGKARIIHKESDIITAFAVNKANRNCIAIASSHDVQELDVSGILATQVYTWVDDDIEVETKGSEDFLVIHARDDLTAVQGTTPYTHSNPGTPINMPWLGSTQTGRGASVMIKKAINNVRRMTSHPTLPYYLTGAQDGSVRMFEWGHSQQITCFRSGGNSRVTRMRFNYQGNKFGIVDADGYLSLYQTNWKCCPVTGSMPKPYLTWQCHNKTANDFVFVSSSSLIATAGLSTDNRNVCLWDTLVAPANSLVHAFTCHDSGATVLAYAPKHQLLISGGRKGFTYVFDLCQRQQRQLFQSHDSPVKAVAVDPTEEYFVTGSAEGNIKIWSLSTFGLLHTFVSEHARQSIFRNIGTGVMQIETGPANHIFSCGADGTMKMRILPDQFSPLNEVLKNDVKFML
UniProt Q9GZP9: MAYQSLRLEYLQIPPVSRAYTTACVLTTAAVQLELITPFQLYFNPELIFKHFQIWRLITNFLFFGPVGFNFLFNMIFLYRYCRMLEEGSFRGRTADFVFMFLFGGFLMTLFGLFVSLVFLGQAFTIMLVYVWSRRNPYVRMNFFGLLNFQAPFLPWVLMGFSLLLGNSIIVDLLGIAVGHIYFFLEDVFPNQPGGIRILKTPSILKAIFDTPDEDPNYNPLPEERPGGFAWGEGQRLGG
UniProt Q9Y222: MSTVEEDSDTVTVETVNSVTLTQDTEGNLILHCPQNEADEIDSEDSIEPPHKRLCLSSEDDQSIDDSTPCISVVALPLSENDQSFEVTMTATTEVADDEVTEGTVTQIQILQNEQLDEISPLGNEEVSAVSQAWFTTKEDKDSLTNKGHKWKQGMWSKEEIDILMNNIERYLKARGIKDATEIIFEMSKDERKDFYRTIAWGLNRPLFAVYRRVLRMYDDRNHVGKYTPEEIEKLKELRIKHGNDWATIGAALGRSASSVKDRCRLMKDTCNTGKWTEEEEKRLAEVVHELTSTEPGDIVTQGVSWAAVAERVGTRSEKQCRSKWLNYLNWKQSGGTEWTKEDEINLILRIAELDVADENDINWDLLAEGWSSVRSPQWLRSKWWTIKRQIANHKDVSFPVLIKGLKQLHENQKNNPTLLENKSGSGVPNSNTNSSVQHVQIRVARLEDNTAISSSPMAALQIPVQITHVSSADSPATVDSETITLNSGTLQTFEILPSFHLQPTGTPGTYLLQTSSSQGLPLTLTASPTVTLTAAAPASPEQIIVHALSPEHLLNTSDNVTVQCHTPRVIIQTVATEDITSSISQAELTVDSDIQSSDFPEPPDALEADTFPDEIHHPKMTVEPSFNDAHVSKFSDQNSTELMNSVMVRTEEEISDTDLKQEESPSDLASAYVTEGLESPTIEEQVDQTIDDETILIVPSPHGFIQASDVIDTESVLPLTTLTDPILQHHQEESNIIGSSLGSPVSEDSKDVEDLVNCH
UniProt P51530: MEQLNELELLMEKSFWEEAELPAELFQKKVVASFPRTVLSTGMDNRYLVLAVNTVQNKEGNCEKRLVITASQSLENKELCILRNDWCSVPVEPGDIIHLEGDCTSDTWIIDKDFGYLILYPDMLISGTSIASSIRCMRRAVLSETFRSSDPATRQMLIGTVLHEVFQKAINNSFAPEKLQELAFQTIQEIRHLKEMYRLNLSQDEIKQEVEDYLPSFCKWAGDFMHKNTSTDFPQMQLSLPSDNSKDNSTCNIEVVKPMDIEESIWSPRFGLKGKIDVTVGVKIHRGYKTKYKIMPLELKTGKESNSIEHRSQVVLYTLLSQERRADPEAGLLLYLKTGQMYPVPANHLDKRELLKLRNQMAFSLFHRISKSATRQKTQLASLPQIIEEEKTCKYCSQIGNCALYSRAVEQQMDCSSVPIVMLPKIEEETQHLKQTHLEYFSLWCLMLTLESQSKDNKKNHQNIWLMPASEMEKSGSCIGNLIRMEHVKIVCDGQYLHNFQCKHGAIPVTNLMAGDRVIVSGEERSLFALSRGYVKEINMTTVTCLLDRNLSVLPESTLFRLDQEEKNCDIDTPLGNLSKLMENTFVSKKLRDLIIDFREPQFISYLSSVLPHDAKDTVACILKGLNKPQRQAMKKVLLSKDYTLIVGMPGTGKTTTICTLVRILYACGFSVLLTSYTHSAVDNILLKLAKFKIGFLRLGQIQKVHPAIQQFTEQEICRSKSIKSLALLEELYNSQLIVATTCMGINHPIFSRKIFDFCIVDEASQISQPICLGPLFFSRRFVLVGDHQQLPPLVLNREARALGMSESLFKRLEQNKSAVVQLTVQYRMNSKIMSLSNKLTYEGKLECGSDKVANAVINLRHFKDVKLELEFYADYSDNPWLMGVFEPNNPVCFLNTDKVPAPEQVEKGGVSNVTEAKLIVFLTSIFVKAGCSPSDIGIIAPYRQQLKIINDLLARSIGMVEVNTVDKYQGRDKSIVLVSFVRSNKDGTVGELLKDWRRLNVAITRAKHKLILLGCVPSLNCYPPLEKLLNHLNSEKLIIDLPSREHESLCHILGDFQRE

Tests used:
Assay in all cases: log2 fold change, soluble protein after heating vs DMSO (PISA); higher = thermal stabilisation; K562 cells, 10 uM, 30 min; active = over 0.2 and 3.5 SD of the protein, either way, in both replicates (recomputed)
erlotinib = compound: C#Cc1cccc(Nc2ncnc3cc(OCCOC)c(OCCOC)cc23)c1 [erlotinib]
Method in brief: (§1)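 For each measurement, 10 μM compound was applied for 30 min to K562 cells at 2×10^6 cells/mL. Aliquots were heated for 3 min across 48°C-58°C, pooled, and extracted in PBS with 0.5% NP-40 at 4°C; the supernatant after 21,000xg for 90 min was soluble protein. This was quantified by TMTpro 16plex LC-MS/MS with channel sums equalised, and thermal stability was reported relative to control samples from duplicates, on a log2 fold-change scale.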

[1] = compound: C/C(=N\NC(=O)C1=CC(=CC=C1)S(=O)(=O)N2CCOCC2)/C3=C(C=CC(=C3)Cl)O
Method in brief: as §1

[2] = compound: C1=CC(=C(C=C1Cl)C2=NC3=NC=CN=C3C(=N2)NC4=CC=NC=C4)F
Method in brief: as §1

[3] = compound: C1=CC(=CC=C1C2=NC3=C(N2)C=C(C=C3)C(=O)N)OC4=CC=C(C=C4)Cl
Method in brief: as §1

[4] = compound: C1=CC2=C(C=CC(=C2)/C=C\3/C(=O)NC(=NCC4=CC=CS4)S3)N=C1
Method in brief: as §1

[5] = compound: C1=CC2=NC=CN=C2C=C1/C=C/3\C(=O)NC(=O)S3
Method in brief: as §1

[6] = compound: C1=CC=C(C=C1)C2=NC(=C(N2)C3=CC=NC=C3)C4=CC(=C(C=C4)Cl)O
Method in brief: as §1

[7] = compound: C1=CC=C2C(=C1)C3=NNC4=CC=CC(=C43)C2=O
Method in brief: as §1

[8] = compound: C1CCN(C1)C(=O)NC2=CC=CC(=C2)NC3=NC=C(C(=N3)NCCC4=CN=CN4)Br
Method in brief: as §1

[9] = compound: C1CN(CCC1(CC2=CC=C(C=C2)Cl)N)C3=NC=NC4=C3C=CN4
Method in brief: as §1

IRAK-1-4 Inhibitor I = compound: C1COCCN1CCN2C3=CC=CC=C3N=C2NC(=O)C4=CC(=CC=C4)[N+](=O)[O-] [IRAK-1-4 Inhibitor I]
Method in brief: as §1

ibrutinib = compound: C=CC(=O)N1CCC[C@@H](n2nc(-c3ccc(Oc4ccccc4)cc3)c3c(N)ncnc32)C1 [ibrutinib]
Method in brief: as §1

[10] = compound: CC(=O)c1cnc2ccc(-c3cc(Cl)c(O)c(Cl)c3)nc2c1N[C@H]1CC[C@H](CN(C)C)CC1
Method in brief: as §1

ralimetinib = compound: CC(C)(C)Cn1c(N)nc2ccc(-c3[nH]c(C(C)(C)C)nc3-c3ccc(F)cc3)nc21 [ralimetinib]
Method in brief: as §1

[11] = compound: CC(C)(O)CC(=O)NCCn1ccc2ncnc(Nc3ccc(Oc4cccc(C(F)(F)F)c4)c(Cl)c3)c21
Method in brief: as §1

[12] = compound: CC(C)C1=C2N=C(C=C(N2N=C1)NCC3=CC=CC=C3)NCCCCCCN
Method in brief: as §1

[13] = compound: CC(C)C[C@@H](C=O)NC(=O)[C@H](CC(C)C)NC(=O)[C@H](CC(C)C)NC(=O)OCc1ccccc1
Method in brief: as §1

pinometostat = compound: CC(C)N(C[C@H]1O[C@@H](n2cnc3c(N)ncnc32)[C@H](O)[C@@H]1O)[C@H]1C[C@@H](CCc2nc3cc(C(C)(C)C)ccc3[nH]2)C1 [pinometostat]
Method in brief: as §1

[14] = compound: CC1=C(C2=C(C=C1)C(=O)C3=CC=CC=C3N2CCCN)C
Method in brief: as §1

[15] = compound: CC1=C(C(CC(=O)N1)C2=CC=C(C=C2)C(F)(F)F)C(=O)NC3=C(C=C4C(=C3)C=NN4)F
Method in brief: as §1

Measured: log2 fold change

DNAAF2 (UniProt Q9NVR5)
inactive: erlotinib 0.046 | [1] 0.021 | [2] 0.108 | [3] -0.003 | [4] 0.01 | [5] 0.016 | [6] -0.018 | [7] -0.025 | [8] 0.021 | [9] -0.025 | IRAK-1-4 Inhibitor I -0.02 | ibrutinib -0.023 | [10] 0.014 | ralimetinib 0.022 | [11] 0.013 | [12] -0.025 | [13] -0.054 | pinometostat -0.023 | [14] -0.013

DNAH11 (UniProt Q96DT5)
inactive: erlotinib -0.252 | [1] -0.237 | [2] 0.001 | [3] 0.085 | [4] 0.012 | [5] -0.023 | [6] -0.28 | [7] -0.001 | [8] 0.125 | [9] 0.119 | IRAK-1-4 Inhibitor I 0.038 | ibrutinib 0.103 | [10] 0.126 | ralimetinib -0.285 | [11] 0.047 | [12] -0.001 | [13] 0.041 | pinometostat -0.019 | [14] -0.137

DHTKD1 (UniProt Q96HY7)
inactive: erlotinib -0.124 | [2] -0.013 | [3] 0.074 | [5] 0.179 | [8] 0.087 | [9] -0.035 | IRAK-1-4 Inhibitor I -0.147 | ibrutinib -0.072 | [11] -0.14 | [12] 0.099 | pinometostat -0.029 | [14] -0.062

DECR2 (UniProt Q9NUI1)
inactive: erlotinib 0.119 | [1] -0.019 | [2] 0.034 | [3] 0.072 | [4] 0.132 | [5] 0.014 | [7] 0.027 | [8] -0.015 | [9] 0.078 | IRAK-1-4 Inhibitor I 0.103 | ibrutinib 0.016 | [10] -0.065 | [11] -0.08 | [12] -0.062 | pinometostat -0.027 | [15] -0.001 | [14] 0.08

DNAH5 (UniProt Q8TE73)
inactive: erlotinib 0.014 | [2] 0.036 | [3] 0.001 | [5] -0.005 | [6] -0.067 | [8] 0.084 | [9] 0.095 | IRAK-1-4 Inhibitor I 0.074 | ibrutinib 0.039 | ralimetinib 0.004 | [11] 0.031 | [12] -0.09 | [13] 0.009 | pinometostat 0.055 | [14] 0.106

Two successive records from above:
DNAH11 (UniProt Q96DT5)
inactive: erlotinib -0.252 | [1] -0.237 | [2] 0.001 | [3] 0.085 | [4] 0.012 | [5] -0.023 | [6] -0.28 | [7] -0.001 | [8] 0.125 | [9] 0.119 | IRAK-1-4 Inhibitor I 0.038 | ibrutinib 0.103 | [10] 0.126 | ralimetinib -0.285 | [11] 0.047 | [12] -0.001 | [13] 0.041 | pinometostat -0.019 | [14] -0.137

DHTKD1 (UniProt Q96HY7)
inactive: erlotinib -0.124 | [2] -0.013 | [3] 0.074 | [5] 0.179 | [8] 0.087 | [9] -0.035 | IRAK-1-4 Inhibitor I -0.147 | ibrutinib -0.072 | [11] -0.14 | [12] 0.099 | pinometostat -0.029 | [14] -0.062

Following part:

DEGS1 (UniProt O15121)
inactive: erlotinib -0.075 | [1] 0.076 | [2] -0.113 | [3] 0.145 | [4] 0.049 | [5] -0.003 | [7] -0.096 | [8] -0.245 | [9] 0.32 | ibrutinib 0.049 | [10] 0.066 | [11] 0.013 | [12] 0.074 | [14] 0.197

DHRSX (UniProt Q8N5I4)
inactive: erlotinib 0.063 | [1] 0.211 | [3] 0.045 | [4] 0.141 | [5] 0.11 | [7] -0.228 | IRAK-1-4 Inhibitor I 0.037 | ibrutinib 0.037 | [10] -0.011 | [12] 0.116 | pinometostat 0.056 | [15] 0.116

DMXL1 (UniProt Q9Y485)
inactive: erlotinib 0.059 | [1] 0.071 | [2] -0.006 | [3] 0.006 | [4] 0.068 | [5] -0.001 | [6] 0.024 | [7] -0.02 | [8] 0.019 | [9] 0.034 | IRAK-1-4 Inhibitor I -0.005 | ibrutinib 0.002 | [10] -0.035 | ralimetinib 0.028 | [11] -0.085 | [12] -0.231 | [13] 0.019 | pinometostat 0.042 | [14] 0.069

DEF8 (UniProt Q6ZN54)
inactive: erlotinib 0.037 | [1] 0.088 | [3] 0.04 | [4] 0.227 | [5] 0.088 | [7] -0.084 | ibrutinib 0.137 | [10] 0.045 | [12] -0.276

DHX16 (UniProt O60231)
active: [10] -0.257
inactive: erlotinib 0.01 | [1] 0.05 | [2] 0.224 | [3] 0.027 | [4] 0.007 | [5] -0.01 | [6] 0.014 | [7] 0.013 | [8] -0.044 | [9] 0.024 | IRAK-1-4 Inhibitor I -0.006 | ibrutinib 0 | ralimetinib -0.001 | [11] -0.025 | [12] -0.002 | [13] 0.009 | pinometostat 0.004 | [14] 0.159

DERL2 (UniProt Q9GZP9)
inactive: [1] 0.098 | [2] 0.111 | [4] -0.03 | [5] -0.019 | [6] -0.032 | [7] 0.099 | [8] -0.01 | [9] 0.104 | IRAK-1-4 Inhibitor I 0.062 | ibrutinib -0.045 | [10] -0.143 | ralimetinib -0.081 | [11] -0.043 | [13] 0.055 | pinometostat -0.165 | [15] 0.002 | [14] 0.048

DMTF1 (UniProt Q9Y222)
inactive: [1] 0.074 | [4] 0.171 | [7] 0.128 | [8] -0.022 | [9] 0.1 | [10] -0.278 | [14] -0.154

DNA2 (UniProt P51530)
inactive: [2] -0.068 | [5] 0.047 | IRAK-1-4 Inhibitor I 0.03 | ibrutinib 0.09 | [11] 0.017 | pinometostat 0.03 | [15] 0.02
